# The name of at least one read-out is uncertain. Some compounds share one wording; it may come from a single statement.
# Protein sequences, listed by entry. Tags and fused reporters are not part of them. Residues count along the entry.
# UniProt P10144, 21-247: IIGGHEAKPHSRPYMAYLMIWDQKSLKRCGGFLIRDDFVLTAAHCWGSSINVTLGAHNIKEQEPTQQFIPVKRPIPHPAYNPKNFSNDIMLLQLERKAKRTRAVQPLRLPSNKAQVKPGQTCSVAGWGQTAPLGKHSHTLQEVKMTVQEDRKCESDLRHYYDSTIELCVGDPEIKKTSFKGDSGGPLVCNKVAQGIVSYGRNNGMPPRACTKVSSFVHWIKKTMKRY
# Target: Granzyme B (Homo sapiens, UniProt P10144)
# Assay: continuous colorimetric Granzyme B inhibition assay with substrate Ac-IEPD-pNA
# Type: biochemical
# Details: substrate Ac-IEPD-pNA 20 μM, 37° C.
# Procedure: Small molecule libraries (ZINC—Irwin J J and Shoichet B K, 2005. J. Chem Inf Model 4591:177-182; NCI—Voigt, J. H. et al. J. Chem. Inf Comput. Sci. 2001, 41, 702-712) were screened in silico for candidate Granzyme B inhibitory compounds. Several candidate small molecule inhibitors were identified and subjected to an in vitro Granzyme B inhibition assay. More specifically, a continuous colormetric assay for Granzyme B activity was carried out with the substrate Ac-IEPD-pNA. Briefly, 8 ug/ml Granzyme B, 20 μM substrate, and increasing concentrations of the inhibitor of interest was incubated in a final reaction volume of 50 ul. The reaction buffer consisted of 50 mM HEPES pH 7.5, 10% sucrose, 0.1% CHAPS and 5 mM DTT and reactions were carried out at 37° C. pNA release and Granzyme B inhibition was monitored at 405 nm on a Tecan Safire microplate reader.
# As detailed herein and as detailed in Tables A and B herein, candidate inhibitors, and IC50 concentration obtained from the inhibition assay are set out below.
row,SMILES,IC50 [inhibition]: inhibition class
1,O=C(Nc1ccc(Cl)cc1Cl)/C(O)=C\C(=O)[C@@H]1CCOC1=O (stereo in doubt) [ZINC05605947],low inhibition
2,"CC[C@H](C)[C@H](NC(=O)Cc1csc2ccccc12)C(=O)N[C@H]1CCc2cccc3c2N(C1=O)[C@H](C(=O)NCc1c[nH]nn1)C3 [Willoughby 20, Azepino[3,2,1-hi]indole-2-carboxamide, 5-[[(2S,3S)-2-[(2-benzo[b]thien-3-ylacetyl)amino]-3-methyl-1-oxopentyl]amino]-1,2,4,5,6,7-hexahydro-4-oxo-N-(1H-1,2,3-triazol-5-ylmethyl)-, (2S,5S)-]",high inhibition
3,Cc1ccc(NC(=O)/C(O)=C(/C(=O)c2ccc3ccccc3c2)[C@@H]2OC(=O)c3ccccc32)cc1C [ZINC05723503],low inhibition
4,COC(=O)CC/C(O)=C(/C(=O)CCC(=O)Nc1ccc(Cl)cc1Cl)C(=O)OC [ZINC05317216],high inhibition
5,Cc1ccc(NC(=O)/C(O)=C(/C(=O)c2ccc3ccccc3c2)[C@H]2OC(=O)c3ccccc32)c(C)c1 (stereo in doubt) [ZINC05316154],low inhibition
6,CC(=O)c1ccc(NC(=O)/C(O)=C(\C(=O)/C=C\c2ccccc2)[C@@H]2OC(=O)c3ccccc32)cc1 [ZINC05723764],high inhibition
7,Cc1ccc(NC(=O)/C(O)=C(/C(=O)/C=C/c2ccccc2)C2OC(=O)c3ccccc32)c(C)c1 (centres unmarked) [ZINC05723787],high inhibition
8,CC(=O)c1ccccc1NC(=O)/C(O)=C(/C(=O)c1ccccc1-c1ccccc1)[C@@H]1OC(=O)c2ccccc21 [ZINC05723646],low inhibition
9,CC(=O)CCC(=O)CC(=O)CCC(=O)Nc1cc(Cl)ccc1Cl [ZINC05316859],low inhibition
10,O=C1CCC(=O)/C(=C(/O)CCC(=O)Nc2cccc(Cl)c2)C1 [ZINC05315460],high inhibition
11,CCOc1ccccc1NC(=O)/C(O)=C(/C(=O)c1ccc2ccccc2c1)[C@@H]1OC(=O)c2ccccc21 [ZINC05398428],low inhibition

# — patent US20140056964A1, “GRANZYME B INHIBITOR COMPOSITIONS, METHODS AND USES FOR PROMOTING WOUND HEALING” (THE UNIVERSITY OF BRITISH COLUMBIA, priority 2010, published 2014)
